# Data: the supplement of paper PMC6411743
# The chains behind the UniProt entries cited, without tags or fusion partners. Where a name states a change or a piece, a line headed by the entry shows the natural chain unless it says otherwise.
# UniProt Q9UBP6: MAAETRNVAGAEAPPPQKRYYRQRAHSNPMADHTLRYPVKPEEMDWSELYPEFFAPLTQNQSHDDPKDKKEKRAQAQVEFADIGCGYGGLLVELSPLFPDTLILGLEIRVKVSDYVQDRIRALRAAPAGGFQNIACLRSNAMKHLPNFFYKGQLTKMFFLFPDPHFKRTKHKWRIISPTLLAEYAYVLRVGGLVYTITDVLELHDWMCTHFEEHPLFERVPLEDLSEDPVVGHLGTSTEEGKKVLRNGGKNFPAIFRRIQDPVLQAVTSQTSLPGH
# UniProt Q9UBL3, whole entry: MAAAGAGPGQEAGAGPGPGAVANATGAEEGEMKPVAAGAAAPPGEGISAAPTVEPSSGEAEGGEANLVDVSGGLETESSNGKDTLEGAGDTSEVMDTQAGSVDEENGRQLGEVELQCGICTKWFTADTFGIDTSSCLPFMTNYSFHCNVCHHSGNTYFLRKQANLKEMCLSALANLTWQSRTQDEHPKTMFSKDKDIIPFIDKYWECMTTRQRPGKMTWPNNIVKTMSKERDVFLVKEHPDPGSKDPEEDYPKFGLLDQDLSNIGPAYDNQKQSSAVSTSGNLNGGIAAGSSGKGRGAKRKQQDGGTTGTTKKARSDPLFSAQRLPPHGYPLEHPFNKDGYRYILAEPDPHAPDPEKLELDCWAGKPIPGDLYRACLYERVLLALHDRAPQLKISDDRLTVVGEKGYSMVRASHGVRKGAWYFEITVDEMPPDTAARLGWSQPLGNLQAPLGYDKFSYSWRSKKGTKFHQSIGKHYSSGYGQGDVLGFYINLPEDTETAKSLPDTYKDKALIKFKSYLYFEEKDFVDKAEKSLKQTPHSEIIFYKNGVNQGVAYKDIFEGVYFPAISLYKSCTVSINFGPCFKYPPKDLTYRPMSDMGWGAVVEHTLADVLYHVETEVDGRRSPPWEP
# UniProt Q9UQE7: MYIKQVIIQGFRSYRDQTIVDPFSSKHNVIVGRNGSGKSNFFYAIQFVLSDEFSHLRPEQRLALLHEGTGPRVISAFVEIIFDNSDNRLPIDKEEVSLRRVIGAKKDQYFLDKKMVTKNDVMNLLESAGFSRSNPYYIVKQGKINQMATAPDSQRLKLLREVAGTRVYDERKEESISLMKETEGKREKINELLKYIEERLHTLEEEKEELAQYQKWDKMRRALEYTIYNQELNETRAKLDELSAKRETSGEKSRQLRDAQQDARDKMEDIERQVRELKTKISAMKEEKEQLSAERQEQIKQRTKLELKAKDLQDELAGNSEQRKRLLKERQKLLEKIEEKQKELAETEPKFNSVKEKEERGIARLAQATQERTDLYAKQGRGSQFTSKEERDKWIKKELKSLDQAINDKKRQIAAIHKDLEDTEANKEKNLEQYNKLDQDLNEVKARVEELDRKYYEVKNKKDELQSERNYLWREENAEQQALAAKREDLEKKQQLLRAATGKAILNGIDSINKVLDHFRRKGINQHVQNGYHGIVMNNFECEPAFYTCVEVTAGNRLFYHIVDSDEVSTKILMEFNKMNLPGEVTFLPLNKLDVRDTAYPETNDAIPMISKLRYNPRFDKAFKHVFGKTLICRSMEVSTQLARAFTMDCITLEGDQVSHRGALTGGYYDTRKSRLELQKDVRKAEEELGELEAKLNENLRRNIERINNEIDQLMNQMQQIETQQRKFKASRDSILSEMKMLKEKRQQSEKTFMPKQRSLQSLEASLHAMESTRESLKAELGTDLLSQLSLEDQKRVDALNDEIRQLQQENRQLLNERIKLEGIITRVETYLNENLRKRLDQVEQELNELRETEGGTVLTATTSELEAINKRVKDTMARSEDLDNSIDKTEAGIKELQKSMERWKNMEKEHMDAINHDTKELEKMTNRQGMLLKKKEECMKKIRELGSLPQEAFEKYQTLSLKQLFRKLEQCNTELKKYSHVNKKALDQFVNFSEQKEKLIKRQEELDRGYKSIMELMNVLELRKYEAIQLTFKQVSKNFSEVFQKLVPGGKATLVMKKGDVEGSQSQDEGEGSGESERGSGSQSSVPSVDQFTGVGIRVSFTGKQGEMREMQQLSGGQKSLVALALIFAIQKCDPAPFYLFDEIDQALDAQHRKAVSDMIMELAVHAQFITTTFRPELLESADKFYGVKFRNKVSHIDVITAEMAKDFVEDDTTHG
# UniProt Q9ULM3: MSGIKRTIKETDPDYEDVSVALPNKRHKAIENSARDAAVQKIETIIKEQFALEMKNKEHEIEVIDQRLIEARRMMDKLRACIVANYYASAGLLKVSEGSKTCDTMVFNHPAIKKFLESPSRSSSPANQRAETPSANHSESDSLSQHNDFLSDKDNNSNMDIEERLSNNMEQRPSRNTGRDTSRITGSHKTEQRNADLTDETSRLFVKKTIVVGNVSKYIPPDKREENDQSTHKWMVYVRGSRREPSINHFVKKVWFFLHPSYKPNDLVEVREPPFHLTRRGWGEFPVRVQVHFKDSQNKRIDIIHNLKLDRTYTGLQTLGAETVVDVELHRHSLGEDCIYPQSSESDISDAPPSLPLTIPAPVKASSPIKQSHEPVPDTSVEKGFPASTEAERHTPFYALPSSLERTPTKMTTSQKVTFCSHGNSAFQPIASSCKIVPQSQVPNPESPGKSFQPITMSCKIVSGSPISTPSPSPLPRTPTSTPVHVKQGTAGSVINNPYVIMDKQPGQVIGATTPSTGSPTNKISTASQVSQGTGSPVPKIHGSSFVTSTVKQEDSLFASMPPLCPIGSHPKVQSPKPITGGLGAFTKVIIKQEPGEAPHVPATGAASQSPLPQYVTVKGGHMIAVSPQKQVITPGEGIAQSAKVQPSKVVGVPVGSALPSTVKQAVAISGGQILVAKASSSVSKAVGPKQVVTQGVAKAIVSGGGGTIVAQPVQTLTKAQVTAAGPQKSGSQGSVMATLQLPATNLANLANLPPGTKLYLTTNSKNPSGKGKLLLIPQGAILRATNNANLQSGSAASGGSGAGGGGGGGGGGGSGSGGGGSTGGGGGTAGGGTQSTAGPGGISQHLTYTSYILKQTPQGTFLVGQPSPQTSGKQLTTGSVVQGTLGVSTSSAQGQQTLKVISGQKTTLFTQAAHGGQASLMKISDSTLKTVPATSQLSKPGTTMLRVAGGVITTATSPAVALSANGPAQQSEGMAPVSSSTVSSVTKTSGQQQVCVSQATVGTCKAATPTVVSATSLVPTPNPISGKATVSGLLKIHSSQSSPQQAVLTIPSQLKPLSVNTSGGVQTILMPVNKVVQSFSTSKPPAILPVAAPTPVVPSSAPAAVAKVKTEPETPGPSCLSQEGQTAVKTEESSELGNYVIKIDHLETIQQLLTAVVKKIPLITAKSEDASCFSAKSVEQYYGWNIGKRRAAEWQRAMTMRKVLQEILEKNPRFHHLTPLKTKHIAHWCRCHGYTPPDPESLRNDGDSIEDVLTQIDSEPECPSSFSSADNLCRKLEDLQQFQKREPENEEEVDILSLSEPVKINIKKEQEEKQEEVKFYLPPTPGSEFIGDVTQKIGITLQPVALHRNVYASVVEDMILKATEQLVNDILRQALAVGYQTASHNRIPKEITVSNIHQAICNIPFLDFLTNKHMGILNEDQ
# UniProt Q9UMX5: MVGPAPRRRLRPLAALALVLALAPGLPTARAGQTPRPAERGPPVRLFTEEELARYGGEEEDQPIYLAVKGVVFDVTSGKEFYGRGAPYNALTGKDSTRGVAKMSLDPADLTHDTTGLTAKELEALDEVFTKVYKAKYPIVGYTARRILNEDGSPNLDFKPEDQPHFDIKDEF
# UniProt Q9UKX7: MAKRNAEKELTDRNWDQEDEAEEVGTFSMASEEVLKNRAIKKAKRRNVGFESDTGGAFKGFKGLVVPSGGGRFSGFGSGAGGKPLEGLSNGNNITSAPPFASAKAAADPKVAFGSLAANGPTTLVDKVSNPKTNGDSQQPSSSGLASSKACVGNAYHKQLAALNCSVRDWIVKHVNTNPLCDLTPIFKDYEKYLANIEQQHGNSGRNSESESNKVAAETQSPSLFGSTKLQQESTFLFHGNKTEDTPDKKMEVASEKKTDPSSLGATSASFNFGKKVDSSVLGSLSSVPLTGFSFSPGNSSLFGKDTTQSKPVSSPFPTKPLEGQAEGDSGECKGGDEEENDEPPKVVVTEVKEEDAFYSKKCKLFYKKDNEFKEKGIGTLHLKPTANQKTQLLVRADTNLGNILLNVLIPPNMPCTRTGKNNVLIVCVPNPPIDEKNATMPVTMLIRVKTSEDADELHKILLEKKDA
# UniProt Q9UHY7: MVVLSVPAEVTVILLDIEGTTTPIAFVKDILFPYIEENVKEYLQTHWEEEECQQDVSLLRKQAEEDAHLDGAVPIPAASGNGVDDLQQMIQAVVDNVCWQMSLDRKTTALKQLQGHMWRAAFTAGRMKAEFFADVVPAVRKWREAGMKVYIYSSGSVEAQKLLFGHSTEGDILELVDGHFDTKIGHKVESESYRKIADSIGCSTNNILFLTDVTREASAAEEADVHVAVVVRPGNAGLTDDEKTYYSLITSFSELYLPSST
# UniProt Q9UNZ2: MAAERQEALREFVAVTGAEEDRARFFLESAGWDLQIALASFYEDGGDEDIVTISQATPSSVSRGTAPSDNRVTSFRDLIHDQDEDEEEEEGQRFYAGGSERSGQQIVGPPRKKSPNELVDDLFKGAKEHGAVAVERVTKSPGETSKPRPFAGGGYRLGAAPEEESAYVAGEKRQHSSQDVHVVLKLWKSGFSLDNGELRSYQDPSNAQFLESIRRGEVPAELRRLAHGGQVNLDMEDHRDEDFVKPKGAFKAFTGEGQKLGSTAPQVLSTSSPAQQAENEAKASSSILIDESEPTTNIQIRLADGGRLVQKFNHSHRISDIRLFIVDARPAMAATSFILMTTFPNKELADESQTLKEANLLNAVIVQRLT
# UniProt Q9UMS4: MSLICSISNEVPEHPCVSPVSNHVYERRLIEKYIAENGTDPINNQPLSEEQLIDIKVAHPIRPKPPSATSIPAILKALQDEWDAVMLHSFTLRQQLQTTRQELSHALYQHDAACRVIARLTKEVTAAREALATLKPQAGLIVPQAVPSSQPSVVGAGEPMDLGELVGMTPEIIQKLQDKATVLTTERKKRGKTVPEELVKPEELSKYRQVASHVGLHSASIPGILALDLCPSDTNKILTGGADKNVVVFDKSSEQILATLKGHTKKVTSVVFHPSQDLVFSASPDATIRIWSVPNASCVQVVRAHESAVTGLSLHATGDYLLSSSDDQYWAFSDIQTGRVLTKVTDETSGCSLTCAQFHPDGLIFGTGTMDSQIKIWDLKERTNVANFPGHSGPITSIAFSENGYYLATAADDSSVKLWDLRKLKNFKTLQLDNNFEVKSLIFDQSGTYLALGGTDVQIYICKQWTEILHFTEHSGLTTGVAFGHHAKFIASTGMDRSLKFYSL
# UniProt Q9UDW1: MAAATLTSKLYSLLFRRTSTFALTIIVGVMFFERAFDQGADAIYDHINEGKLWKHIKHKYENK
# UniProt Q9Y217: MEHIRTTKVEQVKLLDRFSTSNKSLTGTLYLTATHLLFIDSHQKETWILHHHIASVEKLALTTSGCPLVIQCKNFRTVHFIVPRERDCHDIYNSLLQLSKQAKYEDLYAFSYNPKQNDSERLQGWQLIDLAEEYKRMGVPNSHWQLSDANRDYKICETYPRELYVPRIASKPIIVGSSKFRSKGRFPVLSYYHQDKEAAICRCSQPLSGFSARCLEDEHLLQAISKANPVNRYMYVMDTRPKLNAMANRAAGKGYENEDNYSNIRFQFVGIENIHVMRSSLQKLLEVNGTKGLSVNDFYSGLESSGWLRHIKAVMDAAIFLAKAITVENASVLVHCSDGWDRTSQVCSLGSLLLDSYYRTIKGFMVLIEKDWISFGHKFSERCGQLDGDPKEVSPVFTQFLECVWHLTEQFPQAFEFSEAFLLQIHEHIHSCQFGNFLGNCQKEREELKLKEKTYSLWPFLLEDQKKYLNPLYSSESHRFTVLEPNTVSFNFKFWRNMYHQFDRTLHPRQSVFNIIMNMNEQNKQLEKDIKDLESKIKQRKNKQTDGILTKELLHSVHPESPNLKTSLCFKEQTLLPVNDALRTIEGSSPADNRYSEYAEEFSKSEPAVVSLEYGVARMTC
# UniProt Q9UQ13: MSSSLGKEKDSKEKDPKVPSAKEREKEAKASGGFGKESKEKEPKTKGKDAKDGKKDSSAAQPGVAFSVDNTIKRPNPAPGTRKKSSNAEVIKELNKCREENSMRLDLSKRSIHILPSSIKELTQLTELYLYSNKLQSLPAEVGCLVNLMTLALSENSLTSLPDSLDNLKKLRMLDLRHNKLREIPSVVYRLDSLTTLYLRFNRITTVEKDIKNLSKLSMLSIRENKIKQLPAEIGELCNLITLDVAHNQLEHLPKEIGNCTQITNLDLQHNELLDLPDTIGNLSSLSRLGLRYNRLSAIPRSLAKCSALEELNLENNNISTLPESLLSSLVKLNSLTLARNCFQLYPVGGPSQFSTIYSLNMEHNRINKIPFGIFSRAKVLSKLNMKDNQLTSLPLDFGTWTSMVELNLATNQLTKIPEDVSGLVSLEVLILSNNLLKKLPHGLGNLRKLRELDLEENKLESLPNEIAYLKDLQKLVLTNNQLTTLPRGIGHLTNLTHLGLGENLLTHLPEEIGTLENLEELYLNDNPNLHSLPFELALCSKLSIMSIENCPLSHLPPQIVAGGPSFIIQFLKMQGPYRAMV
# ± gives the standard deviation of the averaged measurements. Only a part is listed here, and it is no random draw. Most values lie at the level of the controls, where differences are scatter.
# Compound: Nc1ncnc2c1ncn2[C@@H]1O[C@H](COP(=O)(O)OP(=O)(O)OP(=O)(O)O)[C@@H](O)[C@H]1O [adenosine triphosphate]
# Assay: NP40-soluble protein abundance relative to vehicle (solubility fold change) (ratio); higher = more soluble protein in presence of ATP
# How it was run: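 Across three independent experiments, values are fold changes against the detergent-processed vehicle for each replicate, based on vsn-normalised intensities. The samples were Jurkat crude lysate treated with eight concentrations (0.1 to 10 mM) for 10 min at room temperature and then 3 min at 37 °C. Lysate was solubilised with 0.8% NP40 and benzonase, ultracentrifuged, and the supernatant analysed by TMT-labelled LC-MS/MS.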
Target,NP40-soluble protein abundance (concentration: 0.1mM),NP40-soluble protein abundance (concentration: 0.5mM)
METTL1 (UniProt Q9UBP6),0.995 ± 0.057,0.99 ± 0.1
LRWD1 (UniProt Q9UFC0),1.03 ± 0.051,1.05 ± 0.047
UniProt Q9UK41 and related entries,0.963 ± 0.046,0.951 ± 0.089
UniProt Q9UP83 and related entries,0.983 ± 0.051,0.972 ± 0.054
UniProt Q9UBD5 and related entries,1.07 ± 0.051,1.07 ± 0.061
UniProt Q9UBL3 and related entries,1.02 ± 0.017,1.06 ± 0.037
UniProt Q9UNA1 and related entries,1.05 ± 0.066,1.03 ± 0.072
UniProt Q9UJX2 and related entries,1.01 ± 0.032,1.01 ± 0.038
UniProt Q9UQ49 and related entries,0.951 ± 0.12,0.969 ± 0.09
DDX20 (UniProt Q9UHI6),0.956 ± 0.1,0.949 ± 0.09
DIP2B (UniProt Q9P265),1.02 ± 0.026,1 ± 0.028
SMC3 (UniProt Q9UQE7),1.01 ± 0.041,1.03 ± 0.064
LSM7 (UniProt Q9UK45),0.946 ± 0.022,0.904 ± 0.056
NOTCH3 (UniProt Q9UM47),0.864 ± 0.045,0.85 ± 0.074
UniProt Q9UIS9 and related entries,1.01 ± 0.043,1.05 ± 0.055
YEATS2 (UniProt Q9ULM3),0.994 ± 0.031,1.06 ± 0.076
NENF (UniProt Q9UMX5),0.946 ± 0.05,0.931 ± 0.065
UniProt Q9UKX7 and related entries,1.01 ± 0.013,1.11 ± 0.046
ANAPC7 (UniProt Q9UJX3),0.983 ± 0.033,1.02 ± 0.021
MKLN1 (UniProt Q9UL63),0.98 ± 0.035,0.944 ± 0.016
STUB1 (UniProt Q9UNE7),0.965 ± 0.042,0.954 ± 0.03

Target,NP40-soluble protein abundance (concentration: 0.1mM),NP40-soluble protein abundance (concentration: 0.5mM)
ENOPH1 (UniProt Q9UHY7),1.06 ± 0.043,1.04 ± 0.085
UniProt Q9UK76,0.929 ± 0.065,0.909 ± 0.053
UniProt Q9ULJ3,0.988 ± 0.037,0.997 ± 0.031
UniProt Q9UJS0 and related entries,1.03 ± 0.054,1.08 ± 0.068
UniProt Q9UDT6-2,0.983 ± 0.083,1.09 ± 0.11
UniProt Q9ULP9 and related entries,1.03 ± 0.08,1 ± 0.035
UniProt Q9UNL4 and related entries,1 ± 0.1,1.07 ± 0.035
UniProt Q9UJU2 and related entries,0.932 ± 0.034,0.946 ± 0.043
UniProt Q9UNZ2 and related entries,1.12 ± 0.06,0.987 ± 0.023
UniProt Q9Y232-2|Q9Y232,0.995 ± 0.062,1.01 ± 0.037
UniProt Q9P275 and related entries,0.96 ± 0.011,0.979 ± 0.077
POLG2 (UniProt Q9UHN1),1.02 ± 0.046,0.998 ± 0.022
APPL1 (UniProt Q9UKG1),1.07 ± 0.065,1.06 ± 0.064
PRPF19 (UniProt Q9UMS4),1.02 ± 0.048,1.01 ± 0.039
UniProt Q9UJ68 and related entries,1.06 ± 0.075,1.03 ± 0.1
KMT2B (UniProt Q9UMN6),0.987 ± 0.017,0.993 ± 0.051
BCS1L (UniProt Q9Y276),1.04 ± 0.084,1.03 ± 0.028
UniProt Q9UMS0 and related entries,0.924 ± 0.028,0.908 ± 0.12
CHORDC1 (UniProt Q9UHD1),1.03 ± 0.091,1.05 ± 0.065
UniProt Q9UDW1,0.809 ± 0.14,0.818 ± 0.27
UniProt Q9UBH6 and related entries,0.9954 ± 0.0056,1.06 ± 0.081

# Rewritten tab-delimited: entries from further up
Target	NP40-soluble protein abundance (concentration: 0.1mM)	NP40-soluble protein abundance (concentration: 0.5mM)
POLG2 (UniProt Q9UHN1)	1.02 ± 0.046	0.998 ± 0.022
UniProt Q9UMS0 and related entries	0.924 ± 0.028	0.908 ± 0.12
CHORDC1 (UniProt Q9UHD1)	1.03 ± 0.091	1.05 ± 0.065
UniProt Q9UBH6 and related entries	0.9954 ± 0.0056	1.06 ± 0.081

# Further results follow:

Target,NP40-soluble protein abundance (concentration: 0.1mM),NP40-soluble protein abundance (concentration: 0.5mM)
C19orf53 (UniProt Q9UNZ5),0.93 ± 0.15,0.984 ± 0.33
UniProt Q9Y259 and related entries,1.05 ± 0.033,1.02 ± 0.054
COPS3 (UniProt Q9UNS2),0.922 ± 0.028,0.919 ± 0.065
UniProt Q9ULK4 and related entries,1.04 ± 0.053,1 ± 0.091
UniProt Q9UGN5-2,0.978 ± 0.063,1.03 ± 0.038
UniProt Q9UBU8-2,1.01 ± 0.036,1.01 ± 0.022
UniProt Q9UH99,1.13 ± 0.027,1.18 ± 0.066
CYB5R1 (UniProt Q9UHQ9),1.03 ± 0.079,1.06 ± 0.097
SCML2 (UniProt Q9UQR0),1 ± 0.016,1.11 ± 0.029
PLCL2 (UniProt Q9UPR0),0.984 ± 0.091,0.976 ± 0.051
UniProt Q9UHA4,1.06 ± 0.12,1 ± 0.14
MTMR6 (UniProt Q9Y217),1.05 ± 0.066,1.01 ± 0.054
DRG1 (UniProt Q9Y295),1.04 ± 0.061,1.03 ± 0.053
UniProt Q9UBS9 and related entries,0.987 ± 0.098,0.901 ± 0.046
SEL1L (UniProt Q9UBV2),0.98 ± 0.017,0.981 ± 0.042
UniProt Q9UQ13 and related entries,1.01 ± 0.041,1 ± 0.12
MBD2 (UniProt Q9UBB5),0.987 ± 0.081,0.956 ± 0.053
INO80 (UniProt Q9ULG1),1.17 ± 0.099,1.1 ± 0.082
UniProt Q9Y237 and related entries,0.948 ± 0.024,0.935 ± 0.062
